This note sets out measurements from publication PMC11560011.

Chains of the proteins cited; added tags and fusions are not shown. Lines headed by an entry give the natural chain unless they say otherwise; changes in a name come on top.
UniProt C4LX90: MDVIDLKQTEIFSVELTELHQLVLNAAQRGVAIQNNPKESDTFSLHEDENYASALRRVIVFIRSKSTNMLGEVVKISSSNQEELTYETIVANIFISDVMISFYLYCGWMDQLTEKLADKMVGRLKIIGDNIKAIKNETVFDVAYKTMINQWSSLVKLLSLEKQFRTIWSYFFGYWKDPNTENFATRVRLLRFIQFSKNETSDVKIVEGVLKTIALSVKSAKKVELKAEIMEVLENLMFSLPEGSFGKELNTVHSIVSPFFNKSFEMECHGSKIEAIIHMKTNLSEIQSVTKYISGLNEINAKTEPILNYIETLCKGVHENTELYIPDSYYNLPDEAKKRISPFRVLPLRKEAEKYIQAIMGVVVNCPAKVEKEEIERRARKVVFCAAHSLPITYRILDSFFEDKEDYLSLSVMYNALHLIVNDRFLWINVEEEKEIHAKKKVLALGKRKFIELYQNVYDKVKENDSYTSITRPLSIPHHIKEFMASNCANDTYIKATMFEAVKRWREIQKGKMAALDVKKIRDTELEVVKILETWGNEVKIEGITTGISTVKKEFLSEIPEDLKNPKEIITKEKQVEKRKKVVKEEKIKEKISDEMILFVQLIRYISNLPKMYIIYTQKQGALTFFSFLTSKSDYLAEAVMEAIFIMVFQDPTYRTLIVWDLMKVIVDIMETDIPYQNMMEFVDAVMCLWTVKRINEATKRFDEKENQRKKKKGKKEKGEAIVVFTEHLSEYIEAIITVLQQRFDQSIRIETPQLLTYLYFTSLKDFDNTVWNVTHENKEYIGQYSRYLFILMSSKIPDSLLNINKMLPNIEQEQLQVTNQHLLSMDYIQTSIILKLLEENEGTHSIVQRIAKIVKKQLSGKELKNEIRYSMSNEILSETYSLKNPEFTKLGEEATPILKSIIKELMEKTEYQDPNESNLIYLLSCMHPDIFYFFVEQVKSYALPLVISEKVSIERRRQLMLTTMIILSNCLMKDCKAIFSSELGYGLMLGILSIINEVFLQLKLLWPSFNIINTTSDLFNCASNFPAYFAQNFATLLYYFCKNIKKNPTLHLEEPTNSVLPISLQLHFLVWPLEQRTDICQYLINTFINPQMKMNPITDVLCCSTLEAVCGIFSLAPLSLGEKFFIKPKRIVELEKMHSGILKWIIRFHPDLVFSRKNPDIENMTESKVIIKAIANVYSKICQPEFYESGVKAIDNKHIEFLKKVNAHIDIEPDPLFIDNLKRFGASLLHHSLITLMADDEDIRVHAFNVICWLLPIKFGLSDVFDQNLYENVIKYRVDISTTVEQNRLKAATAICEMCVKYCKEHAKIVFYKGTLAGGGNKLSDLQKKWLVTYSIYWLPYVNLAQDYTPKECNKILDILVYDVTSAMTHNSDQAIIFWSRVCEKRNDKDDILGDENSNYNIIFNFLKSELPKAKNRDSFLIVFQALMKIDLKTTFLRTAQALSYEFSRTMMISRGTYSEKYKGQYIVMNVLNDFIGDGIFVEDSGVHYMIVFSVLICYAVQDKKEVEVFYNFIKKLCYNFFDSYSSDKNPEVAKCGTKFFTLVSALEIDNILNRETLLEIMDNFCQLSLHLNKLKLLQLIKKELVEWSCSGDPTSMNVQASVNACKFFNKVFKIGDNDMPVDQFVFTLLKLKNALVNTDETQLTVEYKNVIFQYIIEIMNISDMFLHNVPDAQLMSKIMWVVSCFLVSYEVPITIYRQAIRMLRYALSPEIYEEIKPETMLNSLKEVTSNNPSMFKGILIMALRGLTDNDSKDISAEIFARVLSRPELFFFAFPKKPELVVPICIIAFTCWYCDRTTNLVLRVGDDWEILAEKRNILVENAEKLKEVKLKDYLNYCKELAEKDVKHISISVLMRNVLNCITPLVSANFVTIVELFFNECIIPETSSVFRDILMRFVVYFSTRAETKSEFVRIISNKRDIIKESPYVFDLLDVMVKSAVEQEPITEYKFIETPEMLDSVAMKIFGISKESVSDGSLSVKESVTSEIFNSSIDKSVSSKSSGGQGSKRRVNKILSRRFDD
UniProt C4MAI6: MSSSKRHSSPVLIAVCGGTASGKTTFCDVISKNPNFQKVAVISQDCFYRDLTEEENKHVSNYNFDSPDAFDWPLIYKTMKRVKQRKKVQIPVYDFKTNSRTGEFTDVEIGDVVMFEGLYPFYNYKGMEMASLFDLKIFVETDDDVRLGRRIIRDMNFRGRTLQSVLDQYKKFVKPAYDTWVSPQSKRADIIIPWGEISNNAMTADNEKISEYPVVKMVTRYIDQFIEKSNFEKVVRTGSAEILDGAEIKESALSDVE
UniProt Q24814: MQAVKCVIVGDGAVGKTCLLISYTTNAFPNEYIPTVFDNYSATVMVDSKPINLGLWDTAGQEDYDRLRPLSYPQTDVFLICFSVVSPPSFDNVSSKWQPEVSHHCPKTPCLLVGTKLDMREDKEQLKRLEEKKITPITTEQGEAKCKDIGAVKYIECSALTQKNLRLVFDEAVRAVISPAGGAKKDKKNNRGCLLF
UniProt C4LY69: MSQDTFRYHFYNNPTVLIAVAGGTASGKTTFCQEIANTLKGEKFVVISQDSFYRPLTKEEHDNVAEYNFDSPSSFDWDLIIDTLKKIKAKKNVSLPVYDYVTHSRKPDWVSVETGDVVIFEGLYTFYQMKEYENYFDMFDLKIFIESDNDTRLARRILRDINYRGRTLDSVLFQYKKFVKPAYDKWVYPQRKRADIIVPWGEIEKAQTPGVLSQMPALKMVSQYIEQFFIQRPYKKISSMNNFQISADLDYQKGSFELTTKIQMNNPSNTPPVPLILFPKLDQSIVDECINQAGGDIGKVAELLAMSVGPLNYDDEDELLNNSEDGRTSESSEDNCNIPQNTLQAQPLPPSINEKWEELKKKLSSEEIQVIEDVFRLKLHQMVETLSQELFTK
UniProt C4MA07: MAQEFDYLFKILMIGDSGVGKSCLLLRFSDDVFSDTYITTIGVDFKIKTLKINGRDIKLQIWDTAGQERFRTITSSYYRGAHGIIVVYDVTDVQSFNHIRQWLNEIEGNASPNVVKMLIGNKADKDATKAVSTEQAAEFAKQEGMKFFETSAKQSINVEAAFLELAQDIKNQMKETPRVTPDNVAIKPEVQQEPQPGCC
UniProt C4M3R0: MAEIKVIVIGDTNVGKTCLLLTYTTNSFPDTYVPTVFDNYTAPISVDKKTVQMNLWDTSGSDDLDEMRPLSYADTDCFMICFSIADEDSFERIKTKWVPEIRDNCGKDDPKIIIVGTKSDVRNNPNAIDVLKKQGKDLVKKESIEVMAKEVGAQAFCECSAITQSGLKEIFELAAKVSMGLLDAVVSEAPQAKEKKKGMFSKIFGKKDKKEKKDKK

First the molecules themselves.
T1: HA-EhRacM (EhRacM tagged with HA at the N-terminus) (Entamoeba histolytica) (UniProt C4M9S3)
T1 sequence: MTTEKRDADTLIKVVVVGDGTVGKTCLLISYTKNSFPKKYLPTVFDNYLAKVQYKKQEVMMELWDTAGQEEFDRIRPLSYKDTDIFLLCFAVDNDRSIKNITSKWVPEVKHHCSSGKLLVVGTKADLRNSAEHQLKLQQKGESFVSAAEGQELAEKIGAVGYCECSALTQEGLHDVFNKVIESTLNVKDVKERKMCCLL

B1: E3 ubiquitin-protein ligase listerin (EHI_190430) (enzyme, UniProt C4M9T6 1-1407)
chain: MISASSVLNDETLFLLKKFQKSNETTIIKTLDELKRNILLEPFISTKKEQQAFSLHFSNIFTTLSTHKSSNVRLNLFICLSDGILQSPQGKNMISFCISEIIPWWLLCCHDSVKEISEAAKKALNILSFEGRQKVITSNISQILRLVSSNEYDLISRMGCLATILPNINISKLSSYGKSHLENSIKSLIESYGSITNEVYFSSIDAALITCNFIVMERFESLKNIIVKTIDELQPFSKYSKQLFLCITSLLENGAIFNEEFYNKIIQYISTACLGSLYVFPTLKRLLPFIKEKELEKKYIEGVFKAIGDSHIRGPQRAVVILHYFESIKYFKYTNINELIEIMKLLLNDPGSIMIDSGYSSMGIFLTKLNETKEIQGVLSSAVTYLRRSEEKEYLIHLNCMKFIVDKCIKNEFTQGFSYDLLKTIIDKNENDHFFNDNEIDLIIFILQKYPATEEVHQMIVRQFQHIFMLSIEENINEFDIINDTVEINDEFLSYVIKMEDLLIQSISFEPSTSIGYLLNQMFFNLFPKHYALNHLNYLRLFINKLKEQQFIQTIVLQINPLIQLLLHSFKSSKDIVQSIISISPRLLTPQQLTELLFTNSINHLQVLLNVDLINYLIKSTINSKELLLHIIKSITSPDIFLPIHQPIRNVLLKLLPSLISYIGIEPIHEMLKSLLLSPNCTSFCISLTSEIPPLRNLLINDIKLLLPLSSFISLIPSYAQNIKSPLLIPMPFINSSEYPHYNNTLSLLVKLYHLNNEEIKEDNEYIEYWLFDSYQKLTNRISVEIPHLQQLILLQYLFKKNEIEQYLIFHIINQLSSWINLSKESIEYLAHLFDSSTSYSIRFFLSTYLSPLHIDWLEKKVNIIIKKFFMVNTQSDPQGLKELSILYPLIFFPTHLKMVFKYIFSLEITSELELPFLHILHYVFSSSCSLCFESLENEESLSLIYQFLLKILTSSVSSNLMKRGALQVSQILITHSLPPKLLTSESEGIQLSFKISLIDFIVNSIINKSNTQLISELLLQTDLLAEIDFMSDSMRKYIPELFKILKGKDSIIVKICTGYLIGASMNFKSDETFIDFDDNEQQKYHPLPPSLEEYLDKAIESFSQFNTLNKTTLIIFILGMLRKIKDSSTEYRSWIVAYLQAHHFELFINNLYTLLPDQHVPLTLSSVLSLLHSFINGEDEDENQLLTKQNENQILNILASYCMFVIVQSFPNVVRQWCLSLRKSAPKMVKKFFERNICPFILQEEVQKILSWKETDDFILRLQLDGKAVTVVYKNDELVFESQLIFPSTYPLDMITVNVASNKVSVSEAKSHLYKRMLTMNLMTRDLGIIDACLLWKQQLDRQFDNSDACPICYSLFYLRTTTIPNVACKCCRKKFHKQCIFGWFRSTGRHDCPLCTRNFYGENKN

These are yes or no findings as the source states them, for the method shown. Binding seen in cells or lysates may run through a third protein. These calls come from enrichment with a bait or labelling near it, and not all partners need be listed. Sequences can lack the tags named with a protein.

The target in one assay is T1, HA-EhRacM (EhRacM tagged with HA at the N-terminus) (Entamoeba histolytica). Kind of assay: affinity purification with mass spectrometry; trophozoites cross-linked with DSP (RT, 30 min), lysed in 50 mM Tris-HCl pH 7.5, 150 mM NaCl, 1% Triton X-100; precleared with Protein G Sepharose; HA-tagged bait captured on anti-HA agarose (clone HA-7) at 4°C for 3.5 h, eluted with HA peptide …; compared with the pEhEx-HA mock strain.
On to “RING-type domain-containing protein (EHI_013240) (from UniProt C4LX90 1-2020)”, for which the binding result was “binds”.

Rho GDI (EHI_185440): the binding result is given as “binds”.

For the molecule “Uridine/cytidine kinase (EHI_196580) (from UniProt C4MAI6) (enzyme)”, the binding entry is listed as “binds”.

With “Rho small GTPase (EHI_181250) (from UniProt Q24814 1-196)”, the binding entry is “binds”.

Consider “Uridine/cytidine kinase (EHI_051730) (from UniProt C4LY69) (enzyme)”, for which the binding entry is on record as “binds”.

In the case of “Rab family GTPase (EhRab1B) (EHI_146510) (from UniProt C4MA07 1-199)”, the binding result is on record as “binds”.

Take “Rho small GTPase (EHI_146180) (from UniProt C4M3R0)”: the binding entry was “binds”.

The target is the same in the next assay. The assay is described as above. The source holds these as a separate data set.
Take B1: the binding result was “binds”.
